Test results reported in patent publication US7258999B2, “PTH responsive gene” (Wyeth, priority 2002, dated 2007).
At least one structure is not confirmed: it was looked up by name or label, or the drawing left a doubt.

Assays:
[1] = test system: PAIGB expression in ROS 17/2.8 cells; test: Real time PCR of PAIGB expression in ROS 17/2.8 cells; type: cell-based, rat; settings: data not shown
Text: Applicants performed multiplex real time PCR (TaqMan) analysis on previously DNAsed samples using gene specific probe and primers and 18S ribosomal RNA probe and primer sets purchased from Applied Biosystem. (Foster City, Calif.) The samples were DNAsed according to the protocol provided by Ambion (DNA-free kit). TaqMan probe and primers for PAIGB was identify using Primer Express computer program. The sequence for rat PAIGB TaqMan probe was 6FAM-5′[…] (SEQ ID NO: 16) forward and reverse primers were 5′[…] 3′ (SEQ ID NO:17) and 5′ […] 3′ (SEQ ID NO:18) respectively. The final concentrations for probes were 500 nM and 40 nM for PAIGB and 18S ribosomal RNA or GAPDH respectively. The concentrations of the primers were 500 nM for PAIGB forward and reversed primers while 18S primers were 10 and 20 nM for forward and reversed primer respectively or 40 nM for GAPDH primers. Standards for rat samples were made from rat tibia or brain RNA in the range of 250 ng to 0.1 ng, while standards for mouse specific TaqMan were made from mouse brain RNA and human standards from human brain RNA (Clonetech, Palo Alto, Calif.) spanning the same range of concentration. Primers and probes for mouse PAIGB were: forward 5′ […] 3′ (SEQ ID NO:19), reverse, 5′ […] (SEQ ID NO:21). Primers and probes for human PAIGB were: forward 5′ […] 3′ (SEQ ID NO:22), reverse 5′ […] 3′(SEQ ID NO: 24). […]

[2] = test system: PAIGB expression in UMR106 cells; test: Real time PCR of PAIGB expression in UMR106 cells; type: cell-based, rat; settings: UMR 106 cells; data not shown
Text: Applicants performed multiplex real time PCR (TaqMan) analysis on previously DNAsed samples using gene specific probe and primers and 18S ribosomal RNA probe and primer sets purchased from Applied Biosystem. (Foster City, Calif.) The samples were DNAsed according to the protocol provided by Ambion (DNA-free kit). TaqMan probe and primers for PAIGB was identify using Primer Express computer program. The sequence for rat PAIGB TaqMan probe was 6FAM-5′[…] (SEQ ID NO: 16) forward and reverse primers were 5′[…] 3′ (SEQ ID NO:17) and 5′ […] 3′ (SEQ ID NO:18) respectively. The final concentrations for probes were 500 nM and 40 nM for PAIGB and 18S ribosomal RNA or GAPDH respectively. The concentrations of the primers were 500 nM for PAIGB forward and reversed primers while 18S primers were 10 and 20 nM for forward and reversed primer respectively or 40 nM for GAPDH primers. Standards for rat samples were made from rat tibia or brain RNA in the range of 250 ng to 0.1 ng, while standards for mouse specific TaqMan were made from mouse brain RNA and human standards from human brain RNA (Clonetech, Palo Alto, Calif.) spanning the same range of concentration. Primers and probes for mouse PAIGB were: forward 5′ […] 3′ (SEQ ID NO:19), reverse, 5′ […] 3′ (SEQ ID NO:20) anti-sense and probe 5′ 6FAM-[…] (SEQ ID NO:21). Primers and probes for human PAIGB were: forward 5′ […] 3′ (SEQ ID NO:22), reverse 5′ […] […]

C=C[C@@]1(C)CC(=O)[C@]2(O)[C@@]3(C)[C@@H](O)CCC(C)(C)[C@@H]3[C@H](O)[C@H](OC(C)=O)[C@@]2(C)O1 [Forskolin]
PAIGB expression [1]: Increases | PAIGB expression [2]: Increases
